Values joined by “and” are separate entries in the source; they are usually repeats but may differ in a detail not shown here. Identical values can stand only once. This is one part of the list. Further columns of the screen follow, without active or inactive calls. Compounds called inactive in the main read-out are mostly missing here. Words in brackets tell the shape of the fitted curve; partial curves, single points and poor fits give uncertain potencies.

A short description of the test: qHTS Assay to Find Inhibitors of Chronic Active B-Cell Receptor Signaling. To be noted: ABC-DLBCL IkBa-CBG/CBR reporter, luminescence ratio (green luciferase fused to IkBa over red control in TMD8 lymphoma cells), 4 h. An excerpt:
NIH Molecular Libraries Probe Production Network [MLPCN] NIH Chemical Genomics Center [NCGC] MLPCN Grant: 1 R03 DA031086-01A1 PI Name: Dr. R. Eric Davis NCGC Assay Overview: Diffuse large B-cell lymphoma (DLBCL) is the most common category of non-Hodgkin lymphoma, with ~20,000 new cases per year in the United States. DLBCL should be regarded as a collection of different neoplasms. Microarray gene expression analysis has defined two principal types of DLBCL, named for their similarity to normal B cell stages or activation states: a germinal center B-cell (GCB) type, and an activated B-cell (ABC) type. In ABC-DLBCL, a constitutive high-level activity of the NF-kappaB family of transcription factors has been observed (1) and NF-kappaB target genes are more highly expressed in ABC primary tumors than in GCB tumors. Functional studies have shown a constitutive high-level activity of the IkappaB (inhibitor of kappa-B) kinase (IKK) complex. […] Further analysis of DLBCL primary tumors for NF-kappaB target gene expression imply that although CARD11 is required for constitutive IKK activity in all ABC-DLBCL lines, mutations in CARD11 may be the root cause of IKK activation only in lines or tumors with such mutations. In other words, CARD11 mutations may explain NF-kappaB activation in only 10% of ABC-DLBCL cases. […] This process has been termed 'chronic active BCR signaling' (CABS). The goal of this screen is to find small-molecule inhibitors of the CABS pathway found in ABC-DLBCL lines using a cell-based assay that measures IkappaBalpa stability, which has already been extensively validated in the OCI-Ly3 line (PubChem AID:445; REF: 4). […] The assay uses green (CBG68) and red (CBR) emitting beetle luciferases [Chroma-GloTM developed by Promega Corp.] where the green luciferase is fused to IkappaBalpha and the red luciferase is present in its native state. Both luciferase genes are stably present in the TMD8 human ABC DLBCL cell line, but their expression is under the control of tetracycline-inducible promoters. Following the addition of doxycycline to induce expression of the luciferases, the green luminescence in control cultures rises only slowly because the CBG fusion partner IkappaBalpha is targeted by IKK activity for rapid degradation. In contrast, green luminescence rises rapidly in the presence of proteasome inhibitors or IKK inhibitors. The rise in red luminescence of CBR is not affected by proteasome or IKK inhibitors, and serves as normalization for cell number and nonspecific effects. Compounds were screened as a concentration-titration series that ranged from 46 uM to 3 nM.
NCGC Assay Protocol Summary: Cells were seeded in 1536-well plates at 5000 cells/4uL in IMDM medium containing 0.5% FBS, w/o phenol red, 1% penicillin/streptomycin. Then, 23 nL of compounds or DMSO were delivered to each well using a pin tool. One uL 20ng/ml doxycycline was then dispensed into white solid 1536-well plates and the plates were incubated at 37C/5% C02 in a cell incubator for 4 hrs. Then 4 uL luminescent substrate mix (in-house prepared: 150 mM Tris-Cl, pH 7.6, 3 mM MgCl2, 1% Triton X-100, 5 mM DTT, 0.2 mM CoA, 0.15 mM ATP, 5 mM D-luciferin, final concentrations) was added to each well. The plate was incubated at r.t. for 10-15 min. The plates were measured on a ViewLux plate reader for green luminescence (540/20 nm filter) and red luminescence (618/8 nm filter). The green and red luminescent signals were corrected for red and green luminescence filter overlap using previously determined filter calibration constants (determined using the procedure outlined in the Promega Technical Manual; REF 4). The %Activity was determined from the ratio of corrected green/red luminescent values. MG132 were used as control. […] Red luminescent %Activity was normalized to the difference between red luminesence in basal cells (0%Activity) and zero luminescence (-100% Activity). […]
For orientation: In qHTS, concentration-response curves come from the screen itself.

[1] abbreviates: measured here: CBR red luminescence, cell number.
Setting [2] is: measured here: IkBa-CBG green luminescence.

With `COP(=O)(OC)C(NC(=O)C(C)(C)C)=C(Cl)Cl`, the AC50 (usually the concentration giving half of the maximal activity seen) under setting [1] was 18.4 µM [rising, single point]. Turning to `O=C(N/N=C/c1c(O)n(-c2cccc3ccccc23)c(=O)[nH]c1=O)c1ccncc1`, the AC50 under setting [1] is 35.5 µM [falling, single point]. Still for that read-out and setting: the result for `CCOc1ccc(-c2c(C)n(-c3ccc(OCC)cc3)c3[n+]2CCCCC3)cc1` reads 6.31 µM [falling, partial curve]. In the case of `CCC(=NCCC(c1ccccc1)c1ccccc1)c1c(O)[nH]c(=O)[nH]c1=O`, the AC50 under setting [2] is 18.4 µM [falling, partial curve]. Regarding `CC(C)c1ccc(N2CC(C)(C)C2=O)cc1`, the AC50 under setting [1] was 20 µM [rising, partial curve, poor fit].

As to `COc1ccc(-n2cnc3cc(C(=O)N4CCC5(CC4)OCCO5)ccc32)cc1`, the AC50 under setting [1] was 11.2 µM [rising, single point] and the AC50 under setting [2] is 25.1 µM [falling, single point].

Turning to `O=C1NC(=O)N(Cc2ccc(F)cc2)C(=O)/C1=C\C=C\c1ccco1`, the AC50 by setting is: under setting [1], 31.6 µM [rising, single point]; under setting [2], 35.5 µM [falling, single point].

With `CCSc1cc(C2C(C#N)=C(N)Oc3n[nH]c(C)c32)c(C)o1` (configuration not stated), the AC50 under setting [2] was 23.1 µM [falling, partial curve, poor fit].

`CCCCOP(=O)(c1ccc(N(C)C)cc1)C(O)c1ccc(N(C)C)cc1` (configuration not stated): the AC50 under setting [1] was 0.112 µM [rising, full curve, poor fit]. With `O=C(CSc1ccccc1)N1CCC2(CC1)OCCO2`, the AC50 under setting [1] is 23.1 µM [rising, single point].

As for `O=C1C(Cc2cnc[nH]2)NC(=S)N1c1ccccc1` (configuration not stated), the AC50 under setting [1] was 10 µM [rising, partial curve, poor fit]. In the case of `COC(=O)c1ccccc1NS(=O)(=O)c1ccc2c3c(cccc13)C(=O)N2`, the AC50 under setting [1] is 10 µM [rising, partial curve, poor fit].

As for `COc1ccc(C2NCc3ccc4c(c3-n3cccc32)OCO4)cc1OC` (configuration not stated), the AC50 under setting [1] was 1.78 µM [rising, partial curve]. Take `O=C(c1ccc(N2CCCCC2)c([N+](=O)[O-])c1)N1CCC2(CC1)OCCO2`: the AC50 under setting [1] is 35.5 µM [rising, single point]. As to `CN1CCc2nc(N)c(C#N)c(-c3ccccc3)c2C1`, the AC50 under setting [1] is 16.4 µM [falling, single point].

Consider `C[C@]12CCC3C(CC[C@H]4C[C@@H](O)CC[C@]34C)C1C[C@H](Br)[C@@H]2O` (some centres not stated), for which the AC50 under setting [1] is 6.51 µM [rising, single point].

For the compound `O=C(NCCN1CCCCC1)c1ccc(Cl)nc1Cl`, the AC50 under setting [1] was 25.1 µM [rising, single point]. On the same count and under the same terms, the figure for `O=C1COc2ccc(C(=O)COC(=O)Cc3ccccc3)cc2N1` is 6.51 µM [rising, full curve, poor fit]. With `Cc1cc2c(C(C)C)c(O)c(O)c(C=O)c2c(O)c1-c1c(C)cc2c(C(C)C)c(O)c(O)c(C=O)c2c1O`, the AC50 reads like this: under setting [1], 29.1 µM [falling, single point] and 5.17 µM [falling, single point]; under setting [2], 15.8 µM [rising, partial curve, poor fit] and 29.1 µM [rising, single point]. Consider `Brc1ccc2c(c1)C(OC1CN3CCC1CC3)c1ccccc1CS2` (configuration not stated), for which the AC50 under setting [1] was 29.1 µM [falling, single point]. Take `Cc1cc(Cl)ccc1OC(C)C(=O)O` (configuration not stated): under setting [1], the AC50 was 22.4 µM [rising, single point].

Consider `CCOc1ccc(CCn2c(-c3ccco3)nc3ccccc3c2=O)cc1OCC`, for which the AC50 under setting [1] was 2.82 µM [falling, full curve]. `CCCCCCn1c(O)c(C=Nc2ccccc2N2CCOCC2)c(=O)[nH]c1=S`: the AC50 under setting [1] is 0.355 µM [rising, full curve, poor fit]. With `CCCCOc1ccc(CC2C(=O)N(C)C(=O)N(C)C2=O)cc1`, under setting [1], the AC50 was 7.94 µM [falling, partial curve, poor fit]. The same measure, in the same setting: the figure for `COC(=O)[C@]1(C)C[C@H]1[C@H](NP(=O)(c1ccccc1)c1ccccc1)c1ccccc1` is 29.1 µM [falling, single point]. In the case of `O=C(/C=C/c1ccccc1)C1C(=O)c2ccccc2C1=O`, the AC50 under setting [1] is 1.46 µM [falling, full curve]. As for `CCCn1c(C(=O)c2ccc(OC)cc2)nc2ccccc21`, the AC50 under setting [1] is 17.8 µM [rising, single point].

Regarding `CCN1CCN(Cc2cc(C(C)(C)C)c(O)c(C(C)(C)C)c2)CC1`, the AC50 under setting [1] was 11.6 µM [falling, partial curve, poor fit]. `NC(=O)c1ccsc1NC(=O)COC(=O)Cc1ccccc1`: under setting [1], the AC50 is 0.366 µM [falling, partial curve, poor fit]. Consider `CC(C)c1ccc(N2C(=O)NC(=O)/C(=C/C=C/c3ccco3)C2=O)cc1`, for which the AC50 under setting [2] was 25.9 µM [falling, single point]. Take `COc1ccc(C(C)=O)cc1CC(C(=O)c1ccccc1)N(C)C` (configuration not stated): the AC50 under setting [1] was 29.1 µM [rising, single point]. In the case of `O=C(c1ccc(Cl)cc1)c1cc([N+](=O)[O-])ccc1N1CCOCC1`, the AC50 under setting [1] is 8.91 µM [rising, partial curve].

Regarding `CCCCCCCCn1sccc1=O`, the AC50 runs as follows: under setting [1], 25.9 µM [falling, single point]; under setting [2], 6.51 µM [falling, single point]. Consider `CCOC(=O)C1=C(N)OC2=C(C(=O)CCC2)[C@]12C(=O)N(CC(N)=O)c1ccccc12`, for which the concentration at half-maximal activity (AC50) under setting [1] is 1 µM [rising, full curve, poor fit]. As for `C=C1C(O)[C@@H]2O[C@]3(CC[C@H](/C=C/C(C)[C@@H]4CC(C)=CC5(O[C@H](C[C@@](C)(O)C(=O)O)CCC5O)O4)O3)CC[C@H]2O[C@@H]1C(O)CC(C)[C@H]1OC2(CCCCO2)CCC1C` (some centres not stated), the AC50 under setting [1] was 0.58 µM [falling, full curve, poor fit]. Same read-out and setting: the figure for `O=P(Oc1ccccc1)(Oc1ccccc1)N1CCN(c2ccc(F)cc2)CC1` is 35.5 µM [falling, single point]. Same read-out and setting: the figure for `COC(=O)C1=C(N)Oc2c(c(=O)oc3ccccc23)[C@]12C(=O)N(C)c1ccccc12` is 0.316 µM [falling, full curve, poor fit]. On the same count and under the same terms, the figure for `COC(=O)C1=C(c2ccc(Cl)c(C(F)(F)F)c2)C[C@@H]2CC[C@H]1N2C(=O)NCCOc1ccc(OC)cc1` is 16.4 µM [falling, single point].

The values above are taken from PubChem BioAssay AID493014 (National Center for Advancing Translational Sciences (NCATS), 2011).
